From patent US9918968B2, “Rapamycin analogs targeting proteasome function in the treatment of cancer” (THE BOARD OF REGENTS OF THE UNIVERSITY OF TEXAS SYSTEM, priority 2013, dated 2018)
At least one compound was matched to its structure with a doubt left.

Legend:
[1] = tested on: T1, human 20S proteasome, ChT-L peptidase; test: ChT-L peptidase activity of purified human 20S proteasome (Suc-LLVY-MCA); format: biochemical
T1 construct: purchased Enzo LifeSciences
Description: Human purified proteasome complexes were purchased from Enzo LifeSciences or Boston Biochemicals (19S complex). BODIPY-casein (Invitrogen/Molecular Probes) was used as a model protein substrate, with increasing fluorescence of BODIPY labeled peptide products of degradation monitored for up to 8 hours at 37° C. The peptidase activity of the enzyme was measured as arbitrary intensity units of the released fluorescent group 7-amino-4-methylcoumarin (AMC) from peptide substrates, as described. […] Proteasome substrates, rapamycin, its derivatives, and competing peptides were stocked in DMSO and diluted 100-fold in the reaction mixtures. The Rpt5 and PA200 C-terminal peptides were synthesized in the Departmental Peptide Synthesis Core using the standard SPPS chemistry. To activate the latent 20S proteasome, 0.005% (final concentration) of sodium dodecyl sulfate (SDS) was used. […] The fluorescence of products was monitored every 2 minutes with a Fluoroskan Ascent plate reader. Reaction rates were calculated from smoothed linear segment of kinetic curves using OriginPro 8.6 (OriginLabs, Northampton, Mass.). […] The kinetic parameters of inhibition were analyzed in terms of the Michaelis-Menten formalism using the enzyme kinetic module of SigmaPlot v.12 (Systat Software, Inc, San Jose, Calif.) to perform the respective calculations. […]

[2] = tested on: T2, human 20S proteasome, PGPH peptidase; test: PGPH peptidase activity of purified human 20S proteasome (CbzLLE-MCA); format: biochemical
T2 construct: purchased Enzo LifeSciences
Description: (§1) Human purified proteasome complexes were purchased from Enzo LifeSciences or Boston Biochemicals (19S complex). BODIPY-casein (Invitrogen/Molecular Probes) was used as a model protein substrate, with increasing fluorescence of BODIPY labeled peptide products of degradation monitored for up to 8 hours at 37° C. The peptidase activity of the enzyme was measured as arbitrary intensity units of the released fluorescent group 7-amino-4-methylcoumarin (AMC) from peptide substrates, as described. The common substrates specific for the three kinds of active sites: succinyl-LeuLeuValTyr-7-amido-4-methylcoumarin (Suc-LLVY-MCA; for the ChT-L activity; Bachem), butoxycarbonyl-LeuArgArg-MCA (BocLRR-MCA; for T-L; Bachem) and carbobenzoxy-LeuLeuGlu-MCA (CbzLLE-MCA; for PGPH; Enzo Life Sciences International, Inc.) were used at 100 μM final concentrations, unless stated otherwise (Gaczynska and Osmulski, 2005). […] The fluorescence of products was monitored every 2 minutes with a Fluoroskan Ascent plate reader. Reaction rates were calculated from smoothed linear segment of kinetic curves using OriginPro 8.6 (OriginLabs, Northampton, Mass.). […] The kinetic parameters of inhibition were analyzed in terms of the Michaelis-Menten formalism using the enzyme kinetic module of SigmaPlot v.12 (Systat Software, Inc, San Jose, Calif.) to perform the respective calculations. […]

[3] = tested on: T3, human 20S proteasome, T-L peptidase; test: T-L peptidase activity of purified human 20S proteasome (BocLRR-MCA); format: biochemical; conditions: nonessential type activation
T3 construct: purchased Enzo LifeSciences
Description: as §1

[4] = tested on: T4, 20S proteasome α face; test: AFM imaging of open/closed conformers of 20S proteasome α face; design: species or system human
T4 construct: purchased Enzo LifeSciences
Description: AFM imaging of the 20S proteasomes were performed as previously described, in tapping (oscillating) mode in liquid (Osmulski et al., 2009 and Gaczynska and Osmulski, 2011). In short, 3 μL of proteasome preparations diluted to nanomolar concentration were deposited on a freshly cleaved muscovite mica surface. After 2 min incubation allowing electrostatic attachment of the protein particles to mica the droplet was overlaid with 30 microL of 50 mM Tris-HCl buffer (pH 7.0) and mounted in the wet chamber of a MultiMode NanoScope Ma (Bruker Corp.). Oxide-sharpened silicon nitride tips on cantilevers with a nominal spring constant 0.32 N/m (Bruker Corp.) were used to image 1 μm^2 fields in the height mode, with a scan rate of 3.05 Hz. The excitation frequency was manually tuned to 9-10 kHz, with a drive voltage of 200-500 mV and a relatively high set point (1.6 V to 1.9 V) to assure tapping with low, non-destructive force. […] As the inventors established previously, such resolution was sufficient to detect distinct conformations of the α face, covered by six scan lines. Multiple fields were scanned for each sample to collect images of hundreds of particles. Selected fields were repeatedly scanned to monitor changes in topography of the same particles for prolonged time. Inhibitors and the SucLLVY-MCA substrate were diluted in 10 μL of the imaging buffer and directly injected into the chamber. Raw images are presented, with a standard plain-fit and flattening (NanoScope software v.5.12) used as the only processing tools. […]
For this purpose, the inventors used the noninvasive tapping mode atomic force microscopy (AFM) in liquid, the imaging technique suitable for analysis of surface topography of macromolecules in their native state with a nanometer-scale practical resolution. […] They acquired and analyzed images of hundreds of single native, fully active 20S molecules. […]

[5] = tested on: T5, 20S core with 19S, 11S, tRpt5 or tPA200; test: Activation of 20S core ChT-L activity by α face ligands (19S, 11S, tRpt5, tPA200); format: biochemical, human
T5 construct: purchased Enzo LifeSciences (20S, 11S); Boston Biochemicals (19S complex)
Description: as §1

Compound: CO[C@H]1C[C@@H]2CC[C@@H](C)[C@@](O)(O2)C(=O)C(=O)N2CCCC[C@H]2C(=O)O[C@H]([C@H](C)C[C@@H]2CC[C@@H](O)[C@H](OC)C2)CC(=O)[C@H](C)/C=C(\C)[C@@H](O)[C@@H](OC)C(=O)[C@H](C)C[C@H](C)/C=C/C=C/C=C/1C [rapamycin]
- type of inhibition, ChT-L peptidase [1]: mixed type of inhibition
- effect on detergent-activated CP ([1]; detergent-activated CP, up to about 5 μM): refractory
- type of inhibition, PGPH cleavages [2]: pure noncompetitive inhibition
- activation of post-basic (T-L) cleavages [3]: nearly two-fold increase in activity
- closed forms ([4]; 0.2 μM, control 75%): 61%
- closed conformers ([4]; 10 μM compound): 40%
- open conformers ([4]; 10 μM compound): about 60%
- effect on activation by 11S ([5]; 5 μM added before 11S, 1:1): remained unaffected
- effect on activation by tRpt5 ([5]; 5 μM rapamycin, 10 μM tRpt5): inhibition of CP
